According to paper PMC9101110:
These are yes or no findings as the source states them, for the method shown. Binding seen in cells or lysates may run through a third protein. Some binding calls cover weakened binding; strength is not graded here. Sequences can lack the tags named with a protein.

Amino acid sequences for entries named in this document (tags omitted).
UniProt P0DMV8: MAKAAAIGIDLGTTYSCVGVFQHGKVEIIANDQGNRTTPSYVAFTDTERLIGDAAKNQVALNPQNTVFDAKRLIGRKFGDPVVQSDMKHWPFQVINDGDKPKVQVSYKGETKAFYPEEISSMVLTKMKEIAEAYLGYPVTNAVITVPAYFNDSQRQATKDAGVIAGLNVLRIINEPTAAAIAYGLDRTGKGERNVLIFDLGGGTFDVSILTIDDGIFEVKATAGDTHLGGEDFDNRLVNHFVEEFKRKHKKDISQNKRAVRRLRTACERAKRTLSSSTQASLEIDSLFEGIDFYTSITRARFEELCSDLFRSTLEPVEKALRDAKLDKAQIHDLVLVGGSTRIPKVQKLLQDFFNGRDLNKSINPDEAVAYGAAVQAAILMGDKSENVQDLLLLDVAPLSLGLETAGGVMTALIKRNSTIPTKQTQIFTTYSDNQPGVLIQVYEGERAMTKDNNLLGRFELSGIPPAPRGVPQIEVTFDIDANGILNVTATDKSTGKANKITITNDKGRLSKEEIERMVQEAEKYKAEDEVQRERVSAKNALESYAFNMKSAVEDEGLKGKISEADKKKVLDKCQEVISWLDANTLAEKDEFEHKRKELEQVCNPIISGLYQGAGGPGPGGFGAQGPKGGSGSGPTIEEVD

Target: HSPA1A, N-terminal NanoLuc fusion (UniProt P0DMV8)
Assay: FRET or BRET; NanoBRET in cotransfected HEK293 cells, white 96-well plates; NanoLuc fusions of PSD95 or HSPA1A (donor, 460 nm) and HaloTag fusions of ARC (acceptor, with or without NanoBRET HaloTag 618 ligand, 620 nm); BRET as the ratio 620/460 nm

- binding: binds
B1: activity-regulated cytoskeleton-associated protein (ARC), wild type, N-terminal HaloTag fusion (protein, UniProt Q7LC44 1-396)
chain: MELDHRTSGGLHAYPGPRGGQVAKPNVILQIGKCRAEMLEHVRRTHRHLLAEVSKQVERELKGLHRSVGKLESNLDGYVPTSDSQRWKKSIKACLCRCQETIANLERWVKREMHVWREVFYRLERWADRLESTGGKYPVGSESARHTVSVGVGGPESYCHEADGYDYTVSPYAITPPPAAGELPGQEPAEAQQYQPWVPGEDGQPSPGVDTQIFEDPREFLSHLEEYLRQVGGSEEYWLSQIQNHMNGPAKKWWEFKQGSVKNWVEFKKEFLQYSEGTLSREAIQRELDLPQKQGEPLDQFLWRKRDLYQTLYVDADEEEIIQYVVGTLQPKLKRFLRHPLPKTLEQLIQRGMEVQDDLEQAAEPAGPHLPVEDEAETLTPAPNSESVASDRTQPE
